# About 170 (0.05%) of roughly 340,000 compounds were called active. The inconclusive results got no clear call from the source; some entries with a clear call stand among them for comparison. Calls come from the whole dose curve; as a rule, active = well fitted inhibition curve with a large enough effect in the signal ratio, with a control signal flat (not every such curve was filed as active); inconclusive = small, poorly fitted or top-dose-only effect, or effect the other way, or a change in a side signal; inactive = flat fitted curve, though single readings scatter; the % refers to the signal ratio. Potencies of inconclusive entries are doubtful fits and often do not repeat.
# Experiment: qHTS Assay to Find Inhibitors of Chronic Active B-Cell Receptor Signaling;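 for activity change, negative = inhibition: plate controls were basal doxycycline-induced cells for no effect and cells given 10 µM MG132 for full effect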
# Conditions: ABC-DLBCL IkBa-CBG/CBR reporter, luminescence ratio (green luciferase fused to IkBa over red control in TMD8 lymphoma cells), 4 h; activity change, negative = inhibition: at 46.1 µM (top of the series)
# In short: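 Cell line TMD8 (human ABC DLBCL), stably expressing tet-inducible CBG68-IkBa fusion and CBR; IMDM/0.5% FBS; cpd up to 46 uM; dox induction, 4 h, 37C/5% CO2; dual luminescence; green/red ratio; MG132 control.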
# Potency is the fitted concentration of half-maximal effect.
Compound,"activity change, negative = inhibition",Potency
COc1cc(O)cc2c1C(=O)OC(C)CCCC(=O)CCC/C=C\2 (stereo unspecified),inconclusive: -8.75%,–
Cc1cc(C)c(OCC(=O)Nc2cccc(NC(=O)c3ccco3)c2)c(Br)c1,–,"inconclusive: 20 µM [falling, single point]"
CCCCn1c(N)c(C(=O)NCCN2CCOCC2)c2nc3ccccc3nc21,inconclusive: 5.43%,–
O=[N+]([O-])c1ccc(F)cc1OCc1nc(-c2cccs2)no1,inconclusive: -2.39%,–
CN1C(=O)N(C)C(=O)C2(Cc3ccccc3N3CCCC32)C1=O (stereo unspecified),inconclusive: -9.71%,–
CCCc1c(C)nc(-c2ccc(C)cc2)nc1OC(=O)N(C)C,inconclusive: 9.53%,–
O=C(C1CCCN(S(=O)(=O)c2cccc3nsnc23)C1)N1CCC2(CC1)OCCO2 (stereo unspecified),inconclusive: 9.37%,–
COc1ccc(OC)c(N=Cc2c(O)n(Cc3ccccc3)c(=S)[nH]c2=O)c1,inconclusive: 1.05%,–
O=C1N(c2nncs2)CCN1[N+](=O)[O-],–,"inconclusive: 7.94 µM [falling, partial curve, poor fit]"
COc1ccc(C(=O)C23CN4CN(CN(C4)C2)C3)cc1,inactive,–
Cc1cccc(-n2c(C)nc3ccccc3c2=O)n1,inconclusive: 10.8%,–
COc1ccc(OC)c(/C=N/OC(=O)Nc2ccc(Cl)cc2)c1,inconclusive: 15.7%,–
COc1cccc(-n2c(=S)[nH]c3ccccc3c2=O)c1,inconclusive: -2.02%,–
CN1CCN(c2ccc(S(C)(=O)=O)cc2[N+](=O)[O-])CC1,inactive,–
CC(C)(C)C(=O)c1cn(Cc2ccccc2)c2ccccc12,inactive,–
COC1=CC(=O)O[C@@H](/C=C/c2ccccc2)C1,–,"inconclusive: 20.6 µM [rising, single point]"
C=COCCn1c(C)c(C(=O)OCC)c2cc(O)ccc21,inconclusive: 2.98%,–
CSc1ncc(CN2CCCC(C(=O)c3cccc(Cl)c3)C2)cn1 (stereo unspecified),inconclusive: 0.657%,–
COc1ccc(-c2nn(CCC#N)cc2C(=O)NCc2ccccc2)cc1OC,inconclusive: -0.26%,–
O=c1[nH]c(=O)n(Cc2ccc(F)cc2)c(O)c1/C=N/Nc1ccccc1,inconclusive: -0.155%,–
COC(=O)C(O)(c1ccc(N(C)C)cc1)C(F)(F)F (stereo unspecified),inactive,–
CC1CN=C(NCc2ccccc2)S1 (stereo unspecified),inconclusive: 0.0248%,–

Compound,"activity change, negative = inhibition",Potency
CN1CCC(N(C)c2ncnc3ccc(Br)cc23)CC1,inconclusive: -5.21%,–
O=C1C2C3CCC(O3)C2C(=O)N1CCO (stereo unspecified),inconclusive: -3.77%,–
COc1cc(-n2c(=S)[nH]c3ccc(C)cc3c2=O)c(Cl)cc1Cl,–,"inconclusive: 35.5 µM [falling, single point]"
O=S(=O)(c1ccc(F)cc1)N1CCCC1c1cccnc1 (stereo unspecified),inconclusive: 4.18%,–
CN(C)c1ccc2c(c1)N=C(c1ccco1)OP2(=S)N1CCOCC1 (stereo unspecified),inconclusive: 2.41%,–
Cc1cc(OCC(=O)O)c2c3c(c(=O)oc2c1)CCCC3,inactive,–
Cc1ccc(N2C(=O)NC(=O)/C(=C\c3cc(C)n(-c4sc5c(c4C#N)CCCC5)c3C)C2=O)cc1,inconclusive: -10.7%,–
CCOC(=O)C1(CCOc2ccccc2)CCN(C(C)CSC)CC1 (stereo unspecified),inactive,–
O=C1CCCc2cc3c(cc21)CC1(C3)Cc2cc3c(cc2C1)C(=O)CCC3,–,"inconclusive: 10 µM [falling, partial curve, poor fit]"
O=C1/C(=C/c2cccc([N+](=O)[O-])c2)N2CCC1CC2,–,"inconclusive: 14.6 µM [falling, partial curve]"
COC(=O)C1C2c3ccccc3OC1(C)N=c1s/c(=C/c3cnn(C)c3C)c(=O)n12 (stereo unspecified),inconclusive: 5.29%,–
O=c1oc2cc(Br)ccc2n1Cc1ccccc1,inconclusive: 4.46%,–
COP(=O)(OC)C(O)C(Cl)(Cl)Cl (stereo unspecified),inconclusive: 0.689%,–
COc1cccc(N2C(=O)NC(=O)/C(=C/c3ccc4c(c3)Cc3ccccc3-4)C2=O)c1,–,"inconclusive: 0.355 µM [rising, partial curve, poor fit]"
CC[C@H]1C2C[C@H]3[C@@H]4N(C)c5ccccc5C45C[C@H](C2[C@H]5O)N3[C@@H]1O (stereo partly specified),inactive,–
CC(=O)Nc1nnc(SCC(=O)c2ccc(F)cc2)s1,–,"inconclusive: 22.4 µM [falling, single point]"
CCOC(=O)N1CCN(c2ncnc3c2[nH]c2ccc(F)cc23)CC1,inconclusive: -0.0407%,–
CCn1c(NN=O)nc2ccccc21,–,"inconclusive: 35.5 µM [falling, single point]"
O=c1[nH]c(O)c(N=Nc2ccc([N+](=O)[O-])cc2)c(=O)[nH]1,inconclusive: 1.03%,–
c1ccc(Cn2ccnc2)cc1,inconclusive: -2.74%,–
CCOc1cc(/C=N/NC(=O)c2cccnc2)ccc1O,–,"inconclusive: 35.5 µM [falling, single point]"
CCOC(=O)C1CCN(/C=C2/C(=O)NC(=S)N(c3ccccc3F)C2=O)CC1,inactive,–

Compound,"activity change, negative = inhibition",Potency
CN1/C(=C\C=C2C(=O)NC(=O)NC2=O)C(C)(C)c2ccccc21,inactive,–
CC(=O)OC1(c2ccccc2)CCN(C)C2CCCCC21 (stereo unspecified),inconclusive: 12.3%,–
Cc1ccccc1CN1CCN(c2ccc(Cl)cc2)CC1,inconclusive: -176%,–
CC(C)[C@]12CC(=O)[C@H](C)[C@H]1C2,inactive,–
CCCCCSc1cc(OC)c(CCN)cc1OC,inconclusive: -21.4%,–
CC(N=Cc1c(O)n(C2CC2)c(=S)[nH]c1=O)c1ccccc1 (stereo unspecified),–,"inconclusive: 11.2 µM [falling, partial curve, poor fit]"
O=C(COC(=O)c1ccc(O)cc1)Nc1ccc(Cl)cc1C(=O)c1ccccc1,inconclusive: -4.6%,–
O=C(NCc1ccc2c(c1)OCO2)c1nc(S(=O)(=O)Cc2ccccc2)ncc1Cl,inconclusive: 22.2%,–
Cn1c(O)c(C(=Nc2ccc(F)cc2)c2ccccc2Cl)c(=O)n(C)c1=O,–,"inconclusive: 20 µM [falling, partial curve, poor fit]"
OCCOCCO,inactive,–
O=C1CC(c2ccccc2Br)c2c(c3ccccc3oc2=O)O1 (stereo unspecified),inactive,–
CN=C(SCc1cc2c(cc1Cl)OCO2)c1c(O)n(C)c(=O)n(C)c1=O,inconclusive: -6.09%,–
OCCOc1ccccc1,inactive,–
O=C(N/N=C/c1ccccc1OC(=O)N1CCOCC1)c1cccs1,–,"inconclusive: 25.1 µM [falling, partial curve]"
COCCN=C1NN=C(c2ccc(NC(C)=O)cc2)CS1,inconclusive: 0.0999%,–
CC(=NCc1ccco1)c1c(O)n(-c2ccc(C)cc2)c(=O)[nH]c1=O,inconclusive: 10%,–
Cc1c(N=Cc2c(O)n(C3CCCCC3)c(=O)[nH]c2=O)c(=O)n(-c2ccccc2)n1C,inconclusive: -0.223%,–
Nc1c(C(=O)NCc2ccco2)c2nc3ccccc3nc2n1CCN1CCCCC1,inconclusive: 15.5%,–
O=c1c2ccccc2nc(CNc2ccccc2)n1-c1ccccc1,–,"inconclusive: 31.6 µM [rising, single point]"
CCCCn1c(O)c(C(CC)=NCc2ccc(F)cc2)c(=O)[nH]c1=O,inactive,–
Cc1ccsc1/C=C1\C(=O)NC(=S)N(C)C1=O,inconclusive: -1.51%,–
COC(=O)C1=C(c2ccc(F)cc2OCc2ccccc2)C[C@@H]2CC[C@H]1N2C(=O)N1CCCCC1,inconclusive: 1.22%,–

Compound,"activity change, negative = inhibition",Potency
CCOC(=O)c1c(C)n(Cc2ccc3c(c2)OCO3)c2ccc(O)cc12,inconclusive: 16.2%,–
CCc1ccc(CNCCc2c[nH]c3ccccc23)cc1,–,"inconclusive: 35.5 µM [falling, single point]"
COc1ccc(OC)c(CN2CCN(C(=O)COc3cccc(C)c3)CC2)c1,inconclusive: 6.09%,–
COc1ccc2c(c1)CC1(CN2C)C(=O)NC(=O)N(c2ccc(C)cc2)C1=O (stereo unspecified),inconclusive: -0.154%,–
O=[N+]([O-])c1ccc(N2CCCCCC2)c2ncccc12,inconclusive: 7.6%,–
Cc1cc(C)cc(-n2c(O)c(C=Nc3ccc(N4CCOCC4)cc3)c(=O)[nH]c2=S)c1,inactive,–
Cc1cc(N(CCCl)CCCl)ccc1/C=N/NC(=O)c1ccco1,–,"inconclusive: 11.2 µM [falling, partial curve]"
CCN1CCN(Cc2ccc(NC(=O)c3cc(NC(=O)c4cc(C)on4)cc(OC)c3)cc2C(F)(F)F)CC1,–,"inconclusive: 35.5 µM [falling, single point]"
Cn1cccc1/C=C1\C(=O)NC(=O)N(Cc2ccccc2)C1=O,inconclusive: -2.71%,–
COc1ccc(NP(=O)(Oc2ccc(Cl)cc2)Oc2ccc(Cl)cc2)cc1OC,inconclusive: 17.5%,–
Oc1cc2c(cc1CN1CCN(c3ccc(F)cc3)CC1)OCO2,inactive,–
CN1C(=O)C(=Cc2ccc(N3CCCCC3)o2)C(=O)N(C)C1=S,inactive,–
Cc1ccc(N)c(C(=O)c2ccc(Br)cc2)c1,inconclusive: 3.99%,–
O=c1cc(CN2CCNCC2)nc2sccn12,inconclusive: 5.51%,–
O=C(c1cccc(C(F)(F)F)c1)C1CCCN(Cc2ccccc2O)C1 (stereo unspecified),inconclusive: 1.58%,–
O=C(N/N=C/c1c(O)n(Cc2ccccc2)c(=O)[nH]c1=O)c1ccccc1,–,"inconclusive: 7.31 µM [falling, partial curve]"
FC(F)(F)c1ccccc1N1CC1c1ccncc1 (stereo unspecified),inactive,–
CCN(CC)C(=O)c1ccc(NC(=O)Cn2nc(C)c3ccccc3c2=O)cc1,inconclusive: -0.575%,–
O=C(Nc1ccc(Cl)cc1)OC1CN2CCC1CC2 (stereo unspecified),inconclusive: 17.1%,–
CCOC(=O)C(NS(=O)(=O)c1ccc(C)cc1)(C(F)(F)F)P(=O)(OCC(C)C)OCC(C)C (stereo unspecified),inconclusive: -0.174%,–

# 18 structures from above, arranged by SMILES length, ascending:
Compound,"activity change, negative = inhibition",Potency
OCCOc1ccccc1,inactive,–
c1ccc(Cn2ccnc2)cc1,inconclusive: -2.74%,–
O=C1C2C3CCC(O3)C2C(=O)N1CCO (stereo unspecified),inconclusive: -3.77%,–
O=C(Nc1ccc(Cl)cc1)OC1CN2CCC1CC2 (stereo unspecified),inconclusive: 17.1%,–
CCc1ccc(CNCCc2c[nH]c3ccccc23)cc1,–,"inconclusive: 35.5 µM [falling, single point]"
Cc1ccsc1/C=C1\C(=O)NC(=S)N(C)C1=O,inconclusive: -1.51%,–
C=COCCn1c(C)c(C(=O)OCC)c2cc(O)ccc21,inconclusive: 2.98%,–
CCOC(=O)C1(CCOc2ccccc2)CCN(C(C)CSC)CC1 (stereo unspecified),inactive,–
O=C(N/N=C/c1ccccc1OC(=O)N1CCOCC1)c1cccs1,–,"inconclusive: 25.1 µM [falling, partial curve]"
O=[N+]([O-])c1ccc(F)cc1OCc1nc(-c2cccs2)no1,inconclusive: -2.39%,–
CN1CCN(c2ccc(S(C)(=O)=O)cc2[N+](=O)[O-])CC1,inactive,–
CCCCn1c(N)c(C(=O)NCCN2CCOCC2)c2nc3ccccc3nc21,inconclusive: 5.43%,–
COc1ccc(OC)c(CN2CCN(C(=O)COc3cccc(C)c3)CC2)c1,inconclusive: 6.09%,–
COc1ccc(NP(=O)(Oc2ccc(Cl)cc2)Oc2ccc(Cl)cc2)cc1OC,inconclusive: 17.5%,–
Cc1cc(C)c(OCC(=O)Nc2cccc(NC(=O)c3ccco3)c2)c(Br)c1,–,"inconclusive: 20 µM [falling, single point]"
COc1ccc2c(c1)CC1(CN2C)C(=O)NC(=O)N(c2ccc(C)cc2)C1=O (stereo unspecified),inconclusive: -0.154%,–
O=C(NCc1ccc2c(c1)OCO2)c1nc(S(=O)(=O)Cc2ccccc2)ncc1Cl,inconclusive: 22.2%,–
O=C(C1CCCN(S(=O)(=O)c2cccc3nsnc23)C1)N1CCC2(CC1)OCCO2 (stereo unspecified),inconclusive: 9.37%,–
